{"source": "patent US20110067123A1", "about": "“MAO-B ELEVATION AS AN EARLY PARKINSON'S DISEASE BIOMARKER” (priority 2008, published 2011)", "tested_on": "dopaminergic SN neurons", "test": "Stereological TH+ SN cell counts in inducible astrocytic MAO-B transgenic mice", "assay_type": "in vivo, mouse", "settings": "dox-induced transgenic mice; co-treatment i.p. 10-30 mg/kg/day for two weeks; FIG. 3A", "note": "At least one compound was matched to its structure with a doubt left."}
{"smiles": "CN(C)c1ccc(O)c2c1C[C@H]1C[C@H]3[C@H](N(C)C)C(O)=C(C(N)=O)C(=O)[C@@]3(O)C(O)=C1C2=O", "note": "[minocycline]", "values": [{"measurement": "dopaminergic SN cell loss", "result": "prevented"}]}
